These results are taken from article PMC10127071.

The target of the assay is Rsrc1-161aa-eGFP (mouse). Kind of assay: affinity purification with mass spectrometry; immunoprecipitation with anti-GFP antibodies from GC-1 spg cells overexpressing Rsrc1-161aa-eGFP (eGFP as negative control); silver staining, differential gel bands excised and detected by mass spectrometry.

Results are given in words; binding and its absence hold for the method and conditions named. In cells and extracts the contact can be indirect. A yes stands for co-enrichment or nearness to the bait. Other partners may have been found.

B1: Complement component 1, q subcomponent binding protein (protein, UniProt O35658 71-278)
chain: LHTEGDKAFVEFLTDEIKEEKKIQKHKSLPKMSGDWELEVNGTEAKLLRKVAGEKITVTFNINNSIPPTFDGEEEPSQGQKAEEQEPERTSTPNFVVEVTKTDGKKTLVLDCHYPEDEIGHEDEAESDIFSIKEVSFQATGDSEWRDTNYTLNTDSLDWALYDHLMDFLADRGVDNTFADELVELSTALEHQEYITFLEDLKSFVKNQ
Regarding B1, the binding result is reported as “binds”.
